Test results reported in PubChem BioAssay AID504467 (National Center for Advancing Translational Sciences (NCATS), 2011).
The whole screen tested about 330,000 compounds, of which about 7,700 (2.3%) were called active. Inconclusive means that the source gave no clear call. Such entries were picked first, then a sample of the others. Calls follow the shape of the dose curve; as a rule, active = well fitted inhibition curve with a large enough effect; inconclusive = small, poorly fitted or top-dose-only effect, or effect the other way; inactive = flat fitted curve, though single readings scatter. Where the call is inconclusive, the potency comes from a doubtful curve fit.

Assay: qHTS screen for small molecules that inhibit ELG1-dependent DNA repair in human embryonic kidney (HEK293T) cells expressing luciferase-tagged ELG1; also: nearly all actives have a fitted effect of over 55% in size
Details: HEK293T ELG1-luciferase reporter, luminescence, 16 h, DNA damage induced by 5-fluorouridine; series mostly up to 46.1 µM
Method in brief: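 Luminescence from the luciferase reporter, measured 30 min after ONE-Glo reagent at room temperature, was the read-out. Beforehand, 2,000 cells per well were exposed for 16 hr at 37 °C to 5-fluorouridine together with compound or vehicle.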
Potency is read from the fitted curve at half-maximal effect.

SMILES	Potency
C/C(=N\Nc1ccc(F)cc1F)c1ccc(Br)s1	inconclusive: 29.1 µM [activator, partial curve, poor fit]
CCOc1ccc(-c2ncncc2-c2ccc(OC)cc2)c(O)c1	inconclusive: 18.4 µM [inhibitor, partial curve]
O=C1C=C(c2cccc(Cl)c2O)C[C@@H](c2ccc(F)cc2)C1	inconclusive: 29.1 µM [inhibitor, single point]
Cc1ccc(C(=O)N2CCN(c3cc(=O)[nH]nc3-c3ccccc3)CC2)cc1	inactive
COc1ccc(C2C=C(C)Nc3nc4ccccc4n32)cc1 (configuration not stated)	inconclusive: 18.3 µM [activator, partial curve]
CN(C)c1ccc(/C=C2\CCCCC2=O)cc1	inconclusive: 3.26 µM [activator, full curve]
O=C(CCS(=O)(=O)c1ccccc1)N1CCN(c2ccccc2F)CC1	inconclusive: 18.3 µM [activator, partial curve]
COC(=O)c1[nH]c2c(c1C)C(=O)CC(c1cccc(OC)c1)C2 (configuration not stated)	inactive
Oc1ccc(N2CCN(Cc3cc4c(cc3Br)OCCO4)CC2)cc1	inconclusive: 7.3 µM [inhibitor, partial curve]
O=C(Nc1ccccc1)O/N=C1/CCCc2occc21	inconclusive: 20.6 µM [activator, single point]
COc1ccccc1N1CCN(CC(=O)c2c(C)[nH]c3ccccc23)CC1	inactive
CCN(CC)CC(=O)Nc1ccc(C)cc1Br	inconclusive: 20.6 µM [activator, single point]
COc1cc(C(=O)NCCC(=O)NCCCN2CCCCC2)cc(OC)c1OC	inconclusive: 32.6 µM [activator, partial curve, poor fit]
Cc1ccc2nc(-c3cccc(-c4cccc(Cl)c4)c3)c(NCc3ccccc3)n2c1	inconclusive: 31.6 µM [inhibitor, single point]
C/C(Cl)=C\Cn1c(N2CCCC2)nc2c1c(=O)n(C)c(=O)n2C	inactive
Cc1cc(C)c2cc(C#N)c(N3CCCC3)nc2c1	inactive
O=C(COC(=O)/C=C/c1ccccc1)NCc1cccs1	inconclusive: 35.5 µM [activator, single point]
Cc1cc2c(cc1C)CSC(c1ccccc1O)SC2	inactive
Cc1cc(C)c(NC(=O)C2=COCCO2)c(C)c1	inconclusive: 25.9 µM [activator, single point]
C[C@@]12CCC=C[C@H]1[C@H](c1ccc3ccccc3c1Br)N(Cc1ccccc1)C2=O	inactive
O=C(N/N=C/c1ccncc1)c1ccc(OCc2ccccc2)cc1	inconclusive: 25.9 µM [activator, partial curve, poor fit]
Cc1ccc(C(=O)Nc2ccc(CN3CCS(=O)(=O)CC3)cc2)cc1C	inconclusive: 25.9 µM [activator, partial curve]
O=C(Nc1cccc(OCC(=O)N2CCOCC2)c1)c1cccc([N+](=O)[O-])c1	inconclusive: 8.2 µM [inhibitor, partial curve, poor fit]

SMILES	Potency
CC(NC(=O)/C(C#N)=C/c1ccc(OCC(=O)O)cc1)c1ccccc1 (configuration not stated)	inactive
C/C(=N\NC(=O)c1cc(-c2ccc(C)s2)nc2ccccc12)c1cccnc1	inactive
CN(C)/C=N/C1=C(C#N)C(c2cccs2)c2ccc3ccccc3c2O1 (configuration not stated)	inconclusive: 23.1 µM [activator, partial curve]
COc1cccc(NC(=O)CN(C)C(C)C(=O)Nc2ccc(C(C)=O)cc2)c1 (configuration not stated)	inactive
Cc1cccn2c(=O)nc(SCC(=O)NC3CCCC3)nc12	inactive
CCOc1cc(N2CCOCC2)c(OCC)cc1NC(=O)COC(=O)c1c(CC)noc1C	inconclusive: 14.6 µM [inhibitor, partial curve]
Cn1cnnc1-c1cccc(NS(=O)(=O)c2ccc(N3CCCC3=O)cc2)c1	inconclusive: 18.4 µM [activator, partial curve]
O=C1CCCN1S(=O)(=O)c1ccccc1	inconclusive: 4.11 µM [inhibitor, full curve]
CCOc1ccc(CNC(=O)CCCC(=O)n2ncc3cc(C)ccc32)cc1	inconclusive: 20.6 µM [activator, single point]
CCCN1CCN(CCCNC(=O)c2ccc3c(c2)NC(=O)c2ccccc2S3)CC1	inconclusive: 29.1 µM [activator, partial curve, poor fit]
O=C(Nc1cc(Cl)ccc1N1CCCC1)C1=NN(c2ccccc2)C(=O)CC1	inconclusive: 18.3 µM [inhibitor, partial curve, poor fit]
O=C(N=C1c2ccccc2CN1c1cccc(Cl)c1)c1cccnc1	inconclusive: 9.2 µM [activator, partial curve]
O=C(C1CCCO1)N1CCN(C(=S)Nc2ccc(F)c(Cl)c2)CC1 (configuration not stated)	inactive
CC(C)n1c(SCC(=O)Nc2ccccc2N2CCOCC2)nc2c1c(=O)n(C)c(=O)n2C	inconclusive: 16.4 µM [inhibitor, single point]
COC(=O)c1ccc(NC(=S)NC(=O)c2c(-c3ccccc3)noc2C)cc1	inconclusive: 23.1 µM [inhibitor, single point]
CCOc1ccc(C(=O)N2CCC(C(=O)c3ccc4c(c3)OCCO4)CC2)cc1	inconclusive: 16.4 µM [inhibitor, single point]
CC(C)OC(=O)c1ccc(NC(=O)c2cccc(-n3cnnn3)c2)cc1	inconclusive: 20.6 µM [inhibitor, partial curve]
CC1=NN(c2ccccc2)C(=O)/C1=C/c1c(O)n(-c2ccc(F)cc2)[nH]c1=O	inconclusive: 20.6 µM [activator, partial curve]
Cc1ccc(/C=N\Nc2cn[nH]c(=O)c2Cl)cc1	inconclusive: 20.6 µM [activator, partial curve]
O=C(Nc1ccc(Br)cc1)C1CCCN1S(=O)(=O)c1cccs1 (configuration not stated)	inconclusive: 16.4 µM [inhibitor, partial curve]
CCOC(=O)C1=C(O)/C(=C/c2ccc(-c3ccccc3C(=O)O)o2)SC1=Nc1ccc(OC)cc1	inconclusive: 20.6 µM [inhibitor, partial curve, poor fit]
Cc1ccc(-c2nc3cc(NS(=O)(=O)c4ccc(C)cc4)ccc3o2)cc1	inactive
COC(=O)c1ccc(/C=C/C(=O)c2cccc(OC)c2)cc1	inconclusive: 29.1 µM [activator, single point]

SMILES	Potency
COc1ccccc1NS(=O)(=O)c1ccc(O)c(C(=O)OCC(=O)Nc2ccccc2F)c1	inconclusive: 6.51 µM [inhibitor, single point]
CC1CCN(c2ccc(C(=O)Nc3ccc4c(c3)OCO4)cc2[N+](=O)[O-])CC1	inconclusive: 20.6 µM [inhibitor, single point]
CCOc1cc(N2CCOCC2)c(OCC)cc1NC1=NCCCCC1	inactive
COc1cc(/C=C(\C#N)c2nc(-c3cc4ccccc4oc3=O)cs2)ccc1O	inconclusive: 8.2 µM [inhibitor, partial curve]
Cc1ccc(NC(=O)CN(C)S(=O)(=O)c2cccc3cccnc23)cc1F	inconclusive: 18.3 µM [inhibitor, single point]
CN(C)C(CNC(=O)c1ccc(OCc2cn3ccccc3n2)cc1)c1ccco1 (configuration not stated)	inconclusive: 18.3 µM [activator, partial curve, poor fit]
O=C1CC[C@H](O)CCN1CCSc1ccc(Br)cc1	inconclusive: 29.1 µM [activator, single point]
CC(C)Cn1c(CN2CCN(c3ccccc3F)CC2)nc2c1c(=O)[nH]c(=O)n2C	inconclusive: 20.6 µM [inhibitor, partial curve, poor fit]
O=C(NCc1ccc2c(c1)OCO2)C1COc2ccccc2O1 (configuration not stated)	inconclusive: 23.1 µM [activator, single point]
COC(=O)c1ccc(NC(=O)CNc2ccccc2)cc1	inconclusive: 14.6 µM [activator, partial curve]
Cc1ccc(N=Cc2nc(-c3ccco3)oc2O)cc1	inconclusive: 20.6 µM [activator, partial curve]
CCOc1ccc2nc(SCC(=O)N3CCN(C(=O)c4ccco4)CC3)sc2c1	inconclusive: 23.1 µM [inhibitor, single point]
Cc1ccc(C(=O)OC(C)C(=O)Nc2ccc3c(c2)OCO3)c(O)c1 (configuration not stated)	inconclusive: 14.6 µM [activator, partial curve]
CCc1cccc(NC(=O)Cn2cc(C=O)c3ccccc32)c1	active: 3.66 µM
COc1ccc(C(=O)N(C)CC(=O)Nc2cccc(F)c2)cc1S(=O)(=O)NC1CCCC1	inactive
Cc1ccccc1NS(=O)(=O)c1cc(C(=O)Nc2ccccc2-c2ccccc2)ccc1Cl	inconclusive: 29.1 µM [inhibitor, single point]
C/C(Cc1ccccc1)=N\NC(=O)CNC(=O)c1cccc(F)c1	inconclusive: 16.4 µM [activator, single point]
COc1cccc(/C=N/NC(=O)CN(C)S(=O)(=O)c2ccccc2)c1OC	inconclusive: 14.1 µM [activator, partial curve]
O=C(/C=C\c1ccc(-c2ccccc2)o1)c1ccccc1	inconclusive: 18.4 µM [activator, partial curve]
COc1ccc(NC(=O)/C(C#N)=C/c2ccc[nH]2)c(OC)c1	inactive
CCOC(=O)C1=C(C)N(C)C(=S)NC1c1c(OCC)ccc2ccccc12 (configuration not stated)	inactive

Gathered by group, the compounds so far with two or more sulfur atoms.
SMILES	Potency
Cc1cc2c(cc1C)CSC(c1ccccc1O)SC2	inactive
O=C(Nc1ccc(Br)cc1)C1CCCN1S(=O)(=O)c1cccs1 (configuration not stated)	inconclusive: 16.4 µM [inhibitor, partial curve]
CCOc1ccc2nc(SCC(=O)N3CCN(C(=O)c4ccco4)CC3)sc2c1	inconclusive: 23.1 µM [inhibitor, single point]
